From article doi:10.1101/2022.10.04.510822 (bioRxiv, 2022)
Where two headings read alike, the source gives them in different places. No constants are given. Whether binding was seen depends on the method and setting. In cells and extracts the contact can be indirect. Some binding calls cover weakened binding; strength is not graded here. For some assays here: Tags and fused reporters may be left off the sequences shown.

Chains of the proteins cited; added tags and fusions are not shown. Lines headed by an entry give the natural chain unless they say otherwise; changes in a name come on top.
UniProt O95166, whole entry: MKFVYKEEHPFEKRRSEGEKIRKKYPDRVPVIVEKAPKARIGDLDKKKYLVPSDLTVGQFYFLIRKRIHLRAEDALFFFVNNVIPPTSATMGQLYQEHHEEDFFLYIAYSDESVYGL
UniProt Q04206, whole entry: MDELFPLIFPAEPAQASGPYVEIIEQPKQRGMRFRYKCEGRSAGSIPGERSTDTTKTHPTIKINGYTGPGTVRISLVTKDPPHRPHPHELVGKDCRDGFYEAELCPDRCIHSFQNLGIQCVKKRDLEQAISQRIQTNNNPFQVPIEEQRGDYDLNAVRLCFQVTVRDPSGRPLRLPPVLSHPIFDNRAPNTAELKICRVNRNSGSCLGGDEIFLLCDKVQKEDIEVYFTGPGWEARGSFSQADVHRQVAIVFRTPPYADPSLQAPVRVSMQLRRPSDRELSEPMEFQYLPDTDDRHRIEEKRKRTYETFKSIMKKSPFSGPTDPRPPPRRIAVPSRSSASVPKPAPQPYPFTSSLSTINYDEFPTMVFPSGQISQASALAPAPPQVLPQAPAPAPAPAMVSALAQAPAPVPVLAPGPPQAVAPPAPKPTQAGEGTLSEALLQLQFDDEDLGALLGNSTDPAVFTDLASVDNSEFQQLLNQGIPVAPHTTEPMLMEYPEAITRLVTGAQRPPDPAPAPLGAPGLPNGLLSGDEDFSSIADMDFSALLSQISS
UniProt O60264, whole entry: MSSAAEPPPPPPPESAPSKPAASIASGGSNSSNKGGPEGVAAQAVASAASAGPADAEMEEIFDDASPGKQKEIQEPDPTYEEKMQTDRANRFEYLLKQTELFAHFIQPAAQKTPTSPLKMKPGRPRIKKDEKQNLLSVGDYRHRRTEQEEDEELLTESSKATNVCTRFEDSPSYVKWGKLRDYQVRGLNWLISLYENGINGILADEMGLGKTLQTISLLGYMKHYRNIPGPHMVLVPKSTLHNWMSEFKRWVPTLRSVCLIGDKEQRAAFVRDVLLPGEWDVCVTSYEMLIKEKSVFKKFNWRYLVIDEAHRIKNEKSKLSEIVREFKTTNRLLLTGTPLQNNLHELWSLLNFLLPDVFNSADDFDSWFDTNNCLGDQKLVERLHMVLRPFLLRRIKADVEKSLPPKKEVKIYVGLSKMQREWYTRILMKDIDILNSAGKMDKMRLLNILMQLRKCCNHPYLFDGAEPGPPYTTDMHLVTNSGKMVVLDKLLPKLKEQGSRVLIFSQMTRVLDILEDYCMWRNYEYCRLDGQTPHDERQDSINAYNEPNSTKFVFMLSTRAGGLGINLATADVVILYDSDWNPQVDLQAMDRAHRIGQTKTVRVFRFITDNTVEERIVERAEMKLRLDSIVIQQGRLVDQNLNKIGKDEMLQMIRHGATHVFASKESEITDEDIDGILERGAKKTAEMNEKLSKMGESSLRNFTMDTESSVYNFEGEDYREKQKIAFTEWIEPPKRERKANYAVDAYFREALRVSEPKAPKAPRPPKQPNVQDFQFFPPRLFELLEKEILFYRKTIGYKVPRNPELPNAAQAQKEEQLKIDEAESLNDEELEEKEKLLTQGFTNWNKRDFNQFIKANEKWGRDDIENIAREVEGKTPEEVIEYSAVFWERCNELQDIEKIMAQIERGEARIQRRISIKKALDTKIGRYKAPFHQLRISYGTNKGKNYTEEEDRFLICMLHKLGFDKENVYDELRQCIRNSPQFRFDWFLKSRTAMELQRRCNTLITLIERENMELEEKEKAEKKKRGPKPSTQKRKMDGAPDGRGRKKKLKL

Tests used:
[1] = molecular target: Flag-GABARAP (HEK293T) (human) (UniProt O95166); assay: co-IP
[2] = molecular target: HA-WSTF L476A (HEK293T) (UniProt Q9UIG0); assay: co-IP
[3] = molecular target: T1, HA-WSTF wild-type (HEK293T) (UniProt Q9UIG0); assay: co-IP
T1 sequence: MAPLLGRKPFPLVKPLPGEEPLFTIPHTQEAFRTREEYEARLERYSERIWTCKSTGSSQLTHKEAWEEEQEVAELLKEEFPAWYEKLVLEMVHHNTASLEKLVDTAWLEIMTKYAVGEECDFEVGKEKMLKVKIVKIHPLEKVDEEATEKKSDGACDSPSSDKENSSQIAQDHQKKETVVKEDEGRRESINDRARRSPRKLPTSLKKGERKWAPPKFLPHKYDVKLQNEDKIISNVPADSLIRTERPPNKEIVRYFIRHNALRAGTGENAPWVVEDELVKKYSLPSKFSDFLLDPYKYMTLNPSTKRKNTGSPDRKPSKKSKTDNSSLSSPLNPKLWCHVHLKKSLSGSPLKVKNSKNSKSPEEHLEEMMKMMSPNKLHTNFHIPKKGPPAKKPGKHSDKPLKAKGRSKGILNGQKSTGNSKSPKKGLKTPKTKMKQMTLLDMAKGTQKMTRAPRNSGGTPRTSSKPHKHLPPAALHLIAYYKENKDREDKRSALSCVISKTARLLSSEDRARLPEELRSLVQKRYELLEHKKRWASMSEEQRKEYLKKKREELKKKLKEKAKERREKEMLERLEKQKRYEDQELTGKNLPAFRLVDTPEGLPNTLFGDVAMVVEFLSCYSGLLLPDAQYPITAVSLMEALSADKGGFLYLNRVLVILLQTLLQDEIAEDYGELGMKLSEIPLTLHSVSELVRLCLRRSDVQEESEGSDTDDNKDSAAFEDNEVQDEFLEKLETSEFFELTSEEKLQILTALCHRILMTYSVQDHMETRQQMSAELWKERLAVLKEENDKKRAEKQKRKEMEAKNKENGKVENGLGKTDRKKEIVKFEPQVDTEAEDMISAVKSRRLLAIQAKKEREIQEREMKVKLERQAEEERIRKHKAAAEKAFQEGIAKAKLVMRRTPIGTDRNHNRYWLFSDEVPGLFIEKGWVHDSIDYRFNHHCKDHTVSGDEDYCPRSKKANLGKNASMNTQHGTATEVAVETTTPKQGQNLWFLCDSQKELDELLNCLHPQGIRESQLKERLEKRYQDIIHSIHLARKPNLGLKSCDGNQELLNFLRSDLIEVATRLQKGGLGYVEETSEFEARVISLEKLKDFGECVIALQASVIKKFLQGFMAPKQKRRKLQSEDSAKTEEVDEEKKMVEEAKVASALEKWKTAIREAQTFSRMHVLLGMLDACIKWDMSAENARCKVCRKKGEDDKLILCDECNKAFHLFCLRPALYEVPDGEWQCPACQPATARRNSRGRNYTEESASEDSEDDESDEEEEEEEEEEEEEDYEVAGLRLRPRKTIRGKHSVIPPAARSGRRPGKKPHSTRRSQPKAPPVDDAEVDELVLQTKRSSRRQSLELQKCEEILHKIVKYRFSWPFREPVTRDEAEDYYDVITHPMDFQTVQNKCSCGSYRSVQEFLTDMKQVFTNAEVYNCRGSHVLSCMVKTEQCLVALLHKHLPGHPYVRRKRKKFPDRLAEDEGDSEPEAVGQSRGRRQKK

[4] = molecular target: HA-WSTF △474-483 (HEK293T) (UniProt Q9UIG0); assay: co-IP
[5] = molecular target: T1, HA-WSTF wild-type (HEK293T); assay: co-IP; remark: listed apart in the source
[6] = molecular target: In vitro translated Flag-p65 (UniProt Q04206); assay: co-IP
[7] = molecular target: GST-GABARAP (human) (UniProt O95166); assay: pull-down
[8] = molecular target: p65, endogenous in IMR90 (human (endogenous in IMR90)) (UniProt Q04206); assay: co-IP

NLS-HA-PP6 (WSTF 406-552) (from UniProt Q9UIG0 406-552) (domain or fragment)
binding [1]: binds

SNF2H, endogenous in HEK293T (from UniProt O60264 1-1052)
binding [2]: binds | binding [3]: binds | binding [4]: binds | binding [5]: binds

B1: In vitro translated HA-WSTF (wild-type) (protein, UniProt Q9UIG0 1-1483)
chain: MAPLLGRKPFPLVKPLPGEEPLFTIPHTQEAFRTREEYEARLERYSERIWTCKSTGSSQLTHKEAWEEEQEVAELLKEEFPAWYEKLVLEMVHHNTASLEKLVDTAWLEIMTKYAVGEECDFEVGKEKMLKVKIVKIHPLEKVDEEATEKKSDGACDSPSSDKENSSQIAQDHQKKETVVKEDEGRRESINDRARRSPRKLPTSLKKGERKWAPPKFLPHKYDVKLQNEDKIISNVPADSLIRTERPPNKEIVRYFIRHNALRAGTGENAPWVVEDELVKKYSLPSKFSDFLLDPYKYMTLNPSTKRKNTGSPDRKPSKKSKTDNSSLSSPLNPKLWCHVHLKKSLSGSPLKVKNSKNSKSPEEHLEEMMKMMSPNKLHTNFHIPKKGPPAKKPGKHSDKPLKAKGRSKGILNGQKSTGNSKSPKKGLKTPKTKMKQMTLLDMAKGTQKMTRAPRNSGGTPRTSSKPHKHLPPAALHLIAYYKENKDREDKRSALSCVISKTARLLSSEDRARLPEELRSLVQKRYELLEHKKRWASMSEEQRKEYLKKKREELKKKLKEKAKERREKEMLERLEKQKRYEDQELTGKNLPAFRLVDTPEGLPNTLFGDVAMVVEFLSCYSGLLLPDAQYPITAVSLMEALSADKGGFLYLNRVLVILLQTLLQDEIAEDYGELGMKLSEIPLTLHSVSELVRLCLRRSDVQEESEGSDTDDNKDSAAFEDNEVQDEFLEKLETSEFFELTSEEKLQILTALCHRILMTYSVQDHMETRQQMSAELWKERLAVLKEENDKKRAEKQKRKEMEAKNKENGKVENGLGKTDRKKEIVKFEPQVDTEAEDMISAVKSRRLLAIQAKKEREIQEREMKVKLERQAEEERIRKHKAAAEKAFQEGIAKAKLVMRRTPIGTDRNHNRYWLFSDEVPGLFIEKGWVHDSIDYRFNHHCKDHTVSGDEDYCPRSKKANLGKNASMNTQHGTATEVAVETTTPKQGQNLWFLCDSQKELDELLNCLHPQGIRESQLKERLEKRYQDIIHSIHLARKPNLGLKSCDGNQELLNFLRSDLIEVATRLQKGGLGYVEETSEFEARVISLEKLKDFGECVIALQASVIKKFLQGFMAPKQKRRKLQSEDSAKTEEVDEEKKMVEEAKVASALEKWKTAIREAQTFSRMHVLLGMLDACIKWDMSAENARCKVCRKKGEDDKLILCDECNKAFHLFCLRPALYEVPDGEWQCPACQPATARRNSRGRNYTEESASEDSEDDESDEEEEEEEEEEEEEDYEVAGLRLRPRKTIRGKHSVIPPAARSGRRPGKKPHSTRRSQPKAPPVDDAEVDELVLQTKRSSRRQSLELQKCEEILHKIVKYRFSWPFREPVTRDEAEDYYDVITHPMDFQTVQNKCSCGSYRSVQEFLTDMKQVFTNAEVYNCRGSHVLSCMVKTEQCLVALLHKHLPGHPYVRRKRKKFPDRLAEDEGDSEPEAVGQSRGRRQKK
binding [6]: binds | binding [7]: binds

B2: HA-WSTF (IMR90, stably expressed) (protein, UniProt Q9UIG0 1-1483)
chain: MAPLLGRKPFPLVKPLPGEEPLFTIPHTQEAFRTREEYEARLERYSERIWTCKSTGSSQLTHKEAWEEEQEVAELLKEEFPAWYEKLVLEMVHHNTASLEKLVDTAWLEIMTKYAVGEECDFEVGKEKMLKVKIVKIHPLEKVDEEATEKKSDGACDSPSSDKENSSQIAQDHQKKETVVKEDEGRRESINDRARRSPRKLPTSLKKGERKWAPPKFLPHKYDVKLQNEDKIISNVPADSLIRTERPPNKEIVRYFIRHNALRAGTGENAPWVVEDELVKKYSLPSKFSDFLLDPYKYMTLNPSTKRKNTGSPDRKPSKKSKTDNSSLSSPLNPKLWCHVHLKKSLSGSPLKVKNSKNSKSPEEHLEEMMKMMSPNKLHTNFHIPKKGPPAKKPGKHSDKPLKAKGRSKGILNGQKSTGNSKSPKKGLKTPKTKMKQMTLLDMAKGTQKMTRAPRNSGGTPRTSSKPHKHLPPAALHLIAYYKENKDREDKRSALSCVISKTARLLSSEDRARLPEELRSLVQKRYELLEHKKRWASMSEEQRKEYLKKKREELKKKLKEKAKERREKEMLERLEKQKRYEDQELTGKNLPAFRLVDTPEGLPNTLFGDVAMVVEFLSCYSGLLLPDAQYPITAVSLMEALSADKGGFLYLNRVLVILLQTLLQDEIAEDYGELGMKLSEIPLTLHSVSELVRLCLRRSDVQEESEGSDTDDNKDSAAFEDNEVQDEFLEKLETSEFFELTSEEKLQILTALCHRILMTYSVQDHMETRQQMSAELWKERLAVLKEENDKKRAEKQKRKEMEAKNKENGKVENGLGKTDRKKEIVKFEPQVDTEAEDMISAVKSRRLLAIQAKKEREIQEREMKVKLERQAEEERIRKHKAAAEKAFQEGIAKAKLVMRRTPIGTDRNHNRYWLFSDEVPGLFIEKGWVHDSIDYRFNHHCKDHTVSGDEDYCPRSKKANLGKNASMNTQHGTATEVAVETTTPKQGQNLWFLCDSQKELDELLNCLHPQGIRESQLKERLEKRYQDIIHSIHLARKPNLGLKSCDGNQELLNFLRSDLIEVATRLQKGGLGYVEETSEFEARVISLEKLKDFGECVIALQASVIKKFLQGFMAPKQKRRKLQSEDSAKTEEVDEEKKMVEEAKVASALEKWKTAIREAQTFSRMHVLLGMLDACIKWDMSAENARCKVCRKKGEDDKLILCDECNKAFHLFCLRPALYEVPDGEWQCPACQPATARRNSRGRNYTEESASEDSEDDESDEEEEEEEEEEEEEDYEVAGLRLRPRKTIRGKHSVIPPAARSGRRPGKKPHSTRRSQPKAPPVDDAEVDELVLQTKRSSRRQSLELQKCEEILHKIVKYRFSWPFREPVTRDEAEDYYDVITHPMDFQTVQNKCSCGSYRSVQEFLTDMKQVFTNAEVYNCRGSHVLSCMVKTEQCLVALLHKHLPGHPYVRRKRKKFPDRLAEDEGDSEPEAVGQSRGRRQKK
binding [8]: binds
